No constants are given. Whether binding was seen depends on the method and setting. Some results given as binding are weak or reduced against the parent protein; the word gives no strength. Sequences can lack the tags named with a protein.
Biological target: His6-M45_(1–90)-mCherry, AAAA mutant A (murine cytomegalovirus (MCMV)) (UniProt Q06A28)
Test: single molecule fluorescence

B1: His6-M45_(1–90)-mCherry, AAAA mutant A (domain or fragment, murine cytomegalovirus (MCMV), UniProt Q06A28 1-90, looked up)
chain: MDRQPKVYSDPDNGFFFLDVPMPDDGQGGQQTATTAAGGAFGVGGGHSVPYVAAAAGVSGIQIGNHNAMSIASCWSPSYTDRRRRSYPKT
In the case of B1, the binding is reported as “binds weakly”.

From doi:10.1101/2025.03.26.644761 (bioRxiv, 2025)
